# Some of the results follow.
# Key:
# Assay in all cases: glycan array binding signal (z-score within array); higher = stronger binding
# Conditions in all cases: glycan notation: IUPAC condensed, linker removed
# [1] = biological target: Fuc(a1-2)Gal
# Summary of the method: (§1)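 Glycan array binding is given as a within-array Z-score, which can be read as non-binding when negative. The arrays, 3228 of them, came from the Consortium for Functional Glycomics database and were retained only where the protein sequence was available. Z-scores were averaged across arrays of the same protein sequence at different concentrations or buffers and across linkers.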
# [2] = biological target: Fuc(a1-2)Gal(b1-3)GalNAc
# Summary of the method: as §1
# [3] = biological target: Fuc(a1-2)Gal(b1-3)GalNAc(a1-3)[Fuc(a1-2)]Gal(b1-4)Glc
# Summary of the method: as §1
# [4] = biological target: Fuc(a1-2)Gal(b1-3)GalNAc(a1-3)[Fuc(a1-2)]Gal(b1-4)GlcNAc
# Summary of the method: as §1
# [5] = biological target: Fuc(a1-2)Gal(b1-3)GalNAc(b1-3)Gal
# Summary of the method: as §1
# [6] = biological target: Fuc(a1-2)Gal(b1-3)GalNAc(b1-3)Gal(a1-4)Gal(b1-4)Glc
# Summary of the method: as §1
# [7] = biological target: Fuc(a1-2)Gal(b1-3)GalNAc(b1-4)[Neu5Ac(a2-3)]Gal(b1-4)Glc
# Summary of the method: as §1
# [8] = biological target: Fuc(a1-2)Gal(b1-3)GlcNAc
# Summary of the method: as §1
# [9] = biological target: Fuc(a1-2)Gal(b1-3)GlcNAc(b1-2)Man(a1-3)[Fuc(a1-2)Gal(b1-3)GlcNAc(b1-2)Man(a1-6)]Man(b1-4)GlcNAc(b1-4)GlcNAc
# Summary of the method: as §1
# [10] = biological target: Fuc(a1-2)Gal(b1-3)GlcNAc(b1-2)Man(a1-3)[Fuc(a1-2)Gal(b1-3)GlcNAc(b1-2)Man(a1-6)]Man(b1-4)GlcNAc(b1-4)[Fuc(a1-6)]GlcNAc
# Summary of the method: as §1
# [11] = biological target: Fuc(a1-2)Gal(b1-3)GlcNAc(b1-3)Gal(b1-4)Glc
# Summary of the method: as §1
# [12] = biological target: Fuc(a1-2)Gal(b1-3)GlcNAc(b1-3)GalNAc
# Summary of the method: as §1
# [13] = biological target: Fuc(a1-2)Gal(b1-3)GlcNAc(b1-3)[Fuc(a1-2)Gal(b1-3)GlcNAc(b1-6)]GalNAc
# Summary of the method: as §1
# [14] = biological target: Fuc(a1-2)Gal(b1-3)GlcNAc(b1-3)[Gal(b1-4)GlcNAc(b1-6)]Gal(b1-4)Glc
# Summary of the method: as §1
# [15] = biological target: Fuc(a1-2)Gal(b1-3)GlcNAc(b1-3)[Neu5Ac(a2-6)Gal(b1-4)GlcNAc(b1-6)]Gal(b1-4)Glc
# Summary of the method: as §1
# [16] = biological target: Fuc(a1-2)Gal(b1-3)GlcNAc6S
# Summary of the method: as §1
# [17] = biological target: Fuc(a1-2)Gal(b1-3)[Fuc(a1-4)]GlcNAc
# Summary of the method: as §1
# [18] = biological target: Fuc(a1-2)Gal(b1-3)[Fuc(a1-4)]GlcNAc(b1-2)Man(a1-3)[Fuc(a1-2)Gal(b1-3)[Fuc(a1-4)]GlcNAc(b1-2)Man(a1-3)]Man(b1-4)GlcNAc(b1-4)GlcNAc
# Summary of the method: as §1
# [19] = biological target: Fuc(a1-2)Gal(b1-3)[Fuc(a1-4)]GlcNAc(b1-2)Man(a1-3)[Fuc(a1-2)Gal(b1-3)[Fuc(a1-4)]GlcNAc(b1-2)Man(a1-6)]Man(b1-4)GlcNAc(b1-4)[Fuc(a1-6)]GlcNAc(b1-4)[Fuc(a1-6)]GlcNAc
# Summary of the method: as §1
# [20] = biological target: Fuc(a1-2)Gal(b1-3)[Fuc(a1-4)]GlcNAc(b1-3)[Fuc(a1-3)[Gal(b1-4)]GlcNAc(b1-6)]Gal(b1-4)Glc
# Summary of the method: as §1
# [21] = biological target: Fuc(a1-2)Gal(b1-3)[Fuc(a1-4)]GlcNAc(b1-3)[Gal(b1-4)GlcNAc(b1-6)]Gal(b1-4)Glc
# Summary of the method: as §1
# [22] = biological target: Fuc(a1-2)Gal(b1-4)Fuc(a1-3)]GlcNAc(b1-2)Man(a1-3)[Fuc(a1-2)Gal(b1-4)[Fuc(a1-3)]GlcNAc(b1-2)Man(a1-6)]Man(b1-4)GlcNAc(b1-4)GlcNAc
# Summary of the method: as §1
# [23] = biological target: Fuc(a1-2)Gal(b1-4)Glc
# Summary of the method: as §1
# [24] = biological target: Fuc(a1-2)Gal(b1-4)Glc6S
# Summary of the method: as §1
# [25] = biological target: Fuc(a1-2)Gal(b1-4)GlcNAc
# Summary of the method: as §1
# [26] = biological target: Fuc(a1-2)Gal(b1-4)GlcNAc(b1-2)Man
# Summary of the method: as §1
# [27] = biological target: Fuc(a1-2)Gal(b1-4)GlcNAc(b1-2)Man(a1-3)[Fuc(a1-2)Gal(b1-4)GlcNAc(b1-2)Man(a1-6)]Man(b1-4)GlcNAc(b1-4)GlcNAc
# Summary of the method: as §1
# [28] = biological target: Fuc(a1-2)Gal(b1-4)GlcNAc(b1-2)Man(a1-3)[Fuc(a1-2)Gal(b1-4)GlcNAc(b1-2)Man(a1-6)]Man(b1-4)GlcNAc(b1-4)[Fuc(a1-6)]GlcNAc
# Summary of the method: as §1
# [29] = biological target: Fuc(a1-2)Gal(b1-4)GlcNAc(b1-2)[Fuc(a1-2)Gal(b1-4)GlcNAc(b1-4)]Man(a1-3)[Fuc(a1-2)Gal(b1-4)GlcNAc(b1-2)Man(a1-6)]Man(b1-4)GlcNAc(b1-4)GlcNAc
# Summary of the method: as §1
# [30] = biological target: Fuc(a1-2)Gal(b1-4)GlcNAc(b1-3)Gal(b1-4)GlcNAc
# Summary of the method: as §1
binder,measurement,setting,value
Epa2 (Candida glabrata) (protein) MGSSHHHHHHSSGLVPRGSHMASSKDPTSFPMGCSPQVLKTQPGLAVKLYSYGHPVPGCAYNTYQYPDFPRSGYKKERKLADITGVNGRIDIDLKPNDPCRVLSGNLPSNYNYQNTLTYTNFTMILYGYFQPKVTGYHTFNLEADDLLFMNLGAGNAFDCCRAESTLDNFGNYQSYSIWGTDKATADLTVFLVSGIYYPIRLFYVNRDNNAVLDFSFSTEFNKEIIHDFTSYFFSASDEEQCPGNI,glycan array binding signal (z-score),[1],0.175
same,glycan array binding signal (z-score),[2],-0.313
same,glycan array binding signal (z-score),[3],-0.114
same,glycan array binding signal (z-score),[4],-0.515
same,glycan array binding signal (z-score),[5],1.21
same,glycan array binding signal (z-score),[6],-0.162
same,glycan array binding signal (z-score),[7],-0.547
same,glycan array binding signal (z-score),[8],-0.642
same,glycan array binding signal (z-score),[9],0.111
same,glycan array binding signal (z-score),[10],-0.074
same,glycan array binding signal (z-score),[11],-0.378
same,glycan array binding signal (z-score),[12],-0.502
same,glycan array binding signal (z-score),[13],0.161
same,glycan array binding signal (z-score),[14],-0.359
same,glycan array binding signal (z-score),[15],-0.78
same,glycan array binding signal (z-score),[16],-0.103
same,glycan array binding signal (z-score),[17],0.672
same,glycan array binding signal (z-score),[18],0.657
same,glycan array binding signal (z-score),[19],0.704
same,glycan array binding signal (z-score),[20],0.365
same,glycan array binding signal (z-score),[21],1.01
same,glycan array binding signal (z-score),[22],0.533
same,glycan array binding signal (z-score),[23],-0.711
same,glycan array binding signal (z-score),[24],-0.085
same,glycan array binding signal (z-score),[25],-0.046
same,glycan array binding signal (z-score),[26],0.755
same,glycan array binding signal (z-score),[27],-0.505
same,glycan array binding signal (z-score),[28],-0.52
same,glycan array binding signal (z-score),[29],0.385
same,glycan array binding signal (z-score),[30],0.003

# Laid out differently: entries from further up
binder	measurement	setting	value
Epa2 (Candida glabrata) (protein) MGSSHHHHHHSSGLVPRGSHMASSKDPTSFPMGCSPQVLKTQPGLAVKLYSYGHPVPGCAYNTYQYPDFPRSGYKKERKLADITGVNGRIDIDLKPNDPCRVLSGNLPSNYNYQNTLTYTNFTMILYGYFQPKVTGYHTFNLEADDLLFMNLGAGNAFDCCRAESTLDNFGNYQSYSIWGTDKATADLTVFLVSGIYYPIRLFYVNRDNNAVLDFSFSTEFNKEIIHDFTSYFFSASDEEQCPGNI	glycan array binding signal (z-score)	[16]	-0.103
same	glycan array binding signal (z-score)	[17]	0.672
same	glycan array binding signal (z-score)	[18]	0.657
same	glycan array binding signal (z-score)	[19]	0.704
same	glycan array binding signal (z-score)	[20]	0.365
same	glycan array binding signal (z-score)	[21]	1.01
same	glycan array binding signal (z-score)	[22]	0.533

# From the supplement of paper PMC8728848
